These are yes or no findings as the source states them, for the method shown. In cells and extracts the contact can be indirect. Some entries that bind do so weakly or less than the wild type. For some assays here: Where a sequence is shown, tags or fusion partners need not be part of it.
T1: HA-tagged μ1a AP subunit (UniProt Q9BXS5)
T1 sequence: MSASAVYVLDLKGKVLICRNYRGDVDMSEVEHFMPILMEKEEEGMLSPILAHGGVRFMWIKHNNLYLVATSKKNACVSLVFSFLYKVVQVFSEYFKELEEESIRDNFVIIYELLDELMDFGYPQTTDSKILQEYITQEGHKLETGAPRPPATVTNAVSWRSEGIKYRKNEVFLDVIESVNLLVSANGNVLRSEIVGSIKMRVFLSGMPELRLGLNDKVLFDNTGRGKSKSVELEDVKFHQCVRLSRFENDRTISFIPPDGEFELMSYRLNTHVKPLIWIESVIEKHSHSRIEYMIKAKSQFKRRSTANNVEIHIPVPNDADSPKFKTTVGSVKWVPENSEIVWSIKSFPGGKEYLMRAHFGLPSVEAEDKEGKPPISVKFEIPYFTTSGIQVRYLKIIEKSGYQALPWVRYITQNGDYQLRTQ

Chains of the proteins cited; added tags and fusions are not shown.
UniProt Q96CW1: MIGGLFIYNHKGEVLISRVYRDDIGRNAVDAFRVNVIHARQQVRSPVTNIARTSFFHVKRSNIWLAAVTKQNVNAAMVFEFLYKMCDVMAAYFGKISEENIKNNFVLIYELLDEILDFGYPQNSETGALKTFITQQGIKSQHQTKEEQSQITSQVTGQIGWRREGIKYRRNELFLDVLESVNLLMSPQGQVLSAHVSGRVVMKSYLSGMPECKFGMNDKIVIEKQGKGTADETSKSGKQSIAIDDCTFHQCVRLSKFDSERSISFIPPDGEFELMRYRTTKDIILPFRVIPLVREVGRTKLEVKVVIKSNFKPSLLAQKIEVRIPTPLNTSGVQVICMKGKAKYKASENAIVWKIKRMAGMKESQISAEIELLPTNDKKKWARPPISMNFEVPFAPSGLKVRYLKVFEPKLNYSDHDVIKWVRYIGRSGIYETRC

T2: HA-tagged μ4 AP subunit (UniProt O00189)
T2 sequence: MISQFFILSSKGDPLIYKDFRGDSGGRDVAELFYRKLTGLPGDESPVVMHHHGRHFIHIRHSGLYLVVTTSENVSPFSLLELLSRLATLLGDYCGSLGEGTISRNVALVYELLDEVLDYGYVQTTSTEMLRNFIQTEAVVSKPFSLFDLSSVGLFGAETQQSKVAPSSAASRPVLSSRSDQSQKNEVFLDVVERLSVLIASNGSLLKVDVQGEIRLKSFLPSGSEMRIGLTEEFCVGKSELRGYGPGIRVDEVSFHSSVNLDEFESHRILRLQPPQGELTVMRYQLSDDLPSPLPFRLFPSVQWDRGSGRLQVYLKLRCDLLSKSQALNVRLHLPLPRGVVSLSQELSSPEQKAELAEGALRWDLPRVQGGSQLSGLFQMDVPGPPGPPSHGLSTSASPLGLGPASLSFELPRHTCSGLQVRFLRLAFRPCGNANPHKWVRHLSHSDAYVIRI

T3: HA-tagged μ3a AP subunit (UniProt Q9Y2T2)
T3 sequence: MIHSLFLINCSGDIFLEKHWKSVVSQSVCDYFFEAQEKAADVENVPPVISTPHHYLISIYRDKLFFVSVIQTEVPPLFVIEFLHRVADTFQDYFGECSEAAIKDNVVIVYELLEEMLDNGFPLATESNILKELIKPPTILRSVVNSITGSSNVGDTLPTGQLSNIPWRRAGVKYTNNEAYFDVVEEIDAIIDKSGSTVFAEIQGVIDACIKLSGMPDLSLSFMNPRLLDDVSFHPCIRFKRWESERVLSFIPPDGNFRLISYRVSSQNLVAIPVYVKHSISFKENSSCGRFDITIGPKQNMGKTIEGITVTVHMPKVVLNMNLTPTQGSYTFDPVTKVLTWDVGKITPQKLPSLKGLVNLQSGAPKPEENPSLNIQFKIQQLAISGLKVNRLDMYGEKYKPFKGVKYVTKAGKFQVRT

B1: SynDIG4∆170–89 (protein, UniProt Q6MG82)
chain: MSSEKSGLPDSVPHTSPPPYNAPQPPAEPPIPPPQTAPSSHHHHHHHYHQSGTATLPRLGAGGLASAAAGAQRGPSSSATLPRPPHHAPPGPAAGAPPPGCATLPRMPPDPYLQETRFEGPLPPPPPAAAAPPPPAPAPTAQAPGFVVPTHAGAVGTLPLGGYVAPGYPSGTPGGPGVTSTLPPPPQGPGLALLEPRRPPHDYMPIAVLTTICCFWPTGIIAIFKAVQVRTALARGDLVSAEIASREARNFSFISLAVGIAAMVLCTILTVVIIIAAQHHENYWDP
B2: SynDIG2 (wild type) (protein, UniProt Q3USQ7 1-237)
chain: MESLSELQNPLLPRSPTHLHRPYPYPEAPPGWSCQEQLYSFLLGGAGPARAHQLLDPGSLQLAVEAWYRPSCLLGRDKVKEPKAGSCETSFTEAREPLAGPAEEGSEPGQAAEDVTIHTVSYGVQEELQGQEDSQEEESDGTSSESECEDAFLTLPPRDHLGLTLFSMLCCFWPLGIAAFYFSQGTSKAISKGDFRLASTTSRRALFLATLSIAVGAGLYVAVVVALAAYMSQNGHG

Assays:
Assay in all cases: co-IP; HEK293T cells co-transfected with SynDIG (or IFITM3) and HA-tagged μAP subunit; lysate on α-HA magnetic beads for 90 min at RT; myc-tagged protein detected by immunoblot; values normalised to eluted μ protein and to input
HA-tagged μ2 AP subunit = HA-tagged μ2 AP subunit (UniProt Q96CW1)
HA-tagged μ1a AP subunit = biological target: T1, HA-tagged μ1a AP subunit
HA-tagged μ4 AP subunit = biological target: T2, HA-tagged μ4 AP subunit
HA-tagged μ3a AP subunit = biological target: T3, HA-tagged μ3a AP subunit

Binder | binding (HA-tagged μ2 AP subunit) | binding (HA-tagged μ1a AP subunit) | binding (HA-tagged μ4 AP subunit) | binding (HA-tagged μ3a AP subunit)
B1 | binds |  |  | 
B2 | no binding | no binding | no binding | no binding
